Source: paper doi:10.1101/2024.02.15.580497
These are yes or no findings as the source states them, for the method shown. In cells and extracts the contact can be indirect. Some binding calls cover weakened binding; strength is not graded here.

Chains of the proteins cited; added tags and fusions are not shown. Residues count along the entry.
UniProt Q14191, residues 910-1250: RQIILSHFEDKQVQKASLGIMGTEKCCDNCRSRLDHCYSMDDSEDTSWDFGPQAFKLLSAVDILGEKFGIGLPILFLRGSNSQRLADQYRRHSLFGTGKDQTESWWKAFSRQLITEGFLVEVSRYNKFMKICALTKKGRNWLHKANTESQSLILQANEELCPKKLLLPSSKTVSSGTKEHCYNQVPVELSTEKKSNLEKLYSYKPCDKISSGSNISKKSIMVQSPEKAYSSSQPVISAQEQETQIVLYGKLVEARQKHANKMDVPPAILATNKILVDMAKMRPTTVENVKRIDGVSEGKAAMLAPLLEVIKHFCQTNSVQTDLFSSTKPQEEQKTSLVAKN
UniProt Q9Y3Z3: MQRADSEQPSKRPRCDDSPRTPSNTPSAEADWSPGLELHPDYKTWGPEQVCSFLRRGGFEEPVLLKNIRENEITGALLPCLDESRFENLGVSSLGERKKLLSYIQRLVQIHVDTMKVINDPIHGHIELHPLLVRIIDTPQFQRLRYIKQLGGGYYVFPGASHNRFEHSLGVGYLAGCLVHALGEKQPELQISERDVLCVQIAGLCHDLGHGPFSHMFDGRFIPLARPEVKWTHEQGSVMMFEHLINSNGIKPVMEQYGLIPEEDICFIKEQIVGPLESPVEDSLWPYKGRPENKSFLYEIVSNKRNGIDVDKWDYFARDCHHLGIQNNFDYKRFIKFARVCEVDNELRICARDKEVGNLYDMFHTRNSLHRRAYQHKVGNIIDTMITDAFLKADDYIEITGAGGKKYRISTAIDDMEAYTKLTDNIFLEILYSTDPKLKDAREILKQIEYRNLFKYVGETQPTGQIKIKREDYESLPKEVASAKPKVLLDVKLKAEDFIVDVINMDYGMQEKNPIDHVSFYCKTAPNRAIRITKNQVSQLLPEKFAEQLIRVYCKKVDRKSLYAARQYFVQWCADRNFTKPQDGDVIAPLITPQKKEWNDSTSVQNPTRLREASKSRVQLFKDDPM

Target: GST-C-terminal WRN fragment (amino acids 910 to 1250) (human) (UniProt Q14191)
Assay: pull-down

How did the binding turn out when SAMHD1 (from UniProt Q9Y3Z3 1-626) was run?
Its binding is “binds”.
